“And” between values parts separate entries of the source, which are not always exact repeats. Identical values can stand only once. The list shows a part of the results.
Columns and labels:
Assay in all cases: protein microarray (ProtoArray v5.0), streptavidin-Alexa Fluor 647
Conditions in all cases: 3'-biotin; 20 mM Tris (pH 7.5), 5 mM MgCl2, 100 mM KCl, 0.1% Tween-20, A/T-rich and random oligonucleotide blockers; temperature not stated; high values mean tight binding
[1] = tested on: DYDC1 (human)
[2] = tested on: DYNC1LI2 (human)
[3] = tested on: Dehydrogenase/reductase SDR family member 1 (human)
[4] = tested on: Density-regulated protein (human)
[5] = tested on: Deoxycytidine kinase (human)
[6] = tested on: Differentially expressed in FDCP 6 homolog (human)
[7] = tested on: Dihydroorotate dehydrogenase, mitochondrial (human)
[8] = tested on: Double-stranded RNA-binding protein Staufen homolog 1 (human)
[9] = tested on: E2F4 (human)
[10] = tested on: ECE1 (human)

GGGGACAGGGGTATGGGGAGGGG [G4-3 biotinylated (CtG)]
binding signal [1]: -0.338 z-score
binding signal [2]: -0.331 z-score
binding signal [3]: -0.335 z-score and -0.325 z-score
binding signal [4]: 3.01 z-score
binding signal [5]: -0.326 z-score
binding signal [6]: -0.333 z-score
binding signal [7]: -0.316 z-score
binding signal [8]: 3.65 z-score
binding signal [9]: -0.328 z-score
binding signal [10]: -0.316 z-score
